Assay results from patent US20210302413A1 (Johns Hopkins, published 2021).
Results are given in words; binding and its absence hold for the method and conditions named. Some results given as binding are weak or reduced against the parent protein; the word gives no strength.

Experiments:
[1] = target: T1, endogenous human zinc transporter 8 (ZnT8) in EndoC-βH1 cells (human) (UniProt Q8IWU4); assay: confocal immunofluorescence of fixed and permeabilised EndoC-βH1 cells, mAb20 1:600 with anti-mouse secondary antibody, co-stained for TMED3
T1 sequence (looked up): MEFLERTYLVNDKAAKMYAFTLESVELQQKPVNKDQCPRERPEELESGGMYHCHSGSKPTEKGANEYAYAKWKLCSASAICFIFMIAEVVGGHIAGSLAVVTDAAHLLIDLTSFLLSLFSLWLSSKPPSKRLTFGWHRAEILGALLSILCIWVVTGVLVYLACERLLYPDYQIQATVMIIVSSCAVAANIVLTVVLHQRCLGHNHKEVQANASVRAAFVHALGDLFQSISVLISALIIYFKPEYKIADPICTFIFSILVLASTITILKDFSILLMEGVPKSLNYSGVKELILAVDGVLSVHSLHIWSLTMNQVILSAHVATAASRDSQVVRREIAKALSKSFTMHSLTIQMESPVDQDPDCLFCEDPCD

[2] = target: T1, endogenous human zinc transporter 8 (ZnT8) in EndoC-βH1 cells (human); assay: confocal immunofluorescence of fixed and permeabilised EndoC-βH1 cells, mAb20 1:600 with anti-mouse secondary antibody, co-stained for Golgin97
[3] = target: T1, endogenous human zinc transporter 8 (ZnT8) in EndoC-βH1 cells (human); assay: immunoblot of total EndoC-βH1 cell lysate
[4] = target: T1, endogenous human zinc transporter 8 (ZnT8) in EndoC-βH1 cells (human); assay: confocal immunofluorescence of fixed and permeabilised EndoC-βH1 cells, mAb20 1:600 with anti-mouse secondary antibody, co-stained for IA2
[5] = target: T1, endogenous human zinc transporter 8 (ZnT8) in EndoC-βH1 cells (human); assay: immunoblot of total SDS lysate of EndoC-βH1 cells, probed with mAb20 and an anti-tubulin antibody together
[6] = target: T1, endogenous human zinc transporter 8 (ZnT8) in EndoC-βH1 cells (human); assay: immunoblot of liposomes from EndoC-βH1 cells probed with biotinylated mAb20 and HRP-streptavidin
[7] = target: T1, endogenous human zinc transporter 8 (ZnT8) in EndoC-βH1 cells (human); assay: capture of EndoC-βH1 liposomes on mAb20-PEG5K-Dynabeads, immunoblot
[8] = target: T1, endogenous human zinc transporter 8 (ZnT8) in EndoC-βH1 cells (human); assay: confocal immunofluorescence of fixed and permeabilised EndoC-βH1 cells, mAb20 1:600 with anti-mouse secondary antibody, co-stained for BAP31
[9] = target: T1, endogenous human zinc transporter 8 (ZnT8) in EndoC-βH1 cells (human); assay: confocal immunofluorescence of fixed and permeabilised EndoC-βH1 cells, mAb20 1:600 with anti-mouse secondary antibody, co-stained for insulin
[10] = target: T1, endogenous human zinc transporter 8 (ZnT8) in EndoC-βH1 cells (human); assay: in-cell ELISA on fixed, permeabilised EndoC-βH1 cells, HRP chemiluminescence
[11] = target: T1, endogenous human zinc transporter 8 (ZnT8) in EndoC-βH1 cells (human); assay: in-cell ELISA on fixed and permeabilised EndoC-βH1 cells, mAb20 at 1:600, HRP anti-mouse IgG, chemiluminescence; the number of cells is varied
[12] = target: T1, endogenous human zinc transporter 8 (ZnT8) in EndoC-βH1 cells (human); assay: capture of liposomes from EndoC-βH1 cells on mAb20-PEG5K-Dynabeads, SDS elution, immunoblot probed with mAb20
[13] = target: T1, endogenous human zinc transporter 8 (ZnT8) in EndoC-βH1 cells (human); assay: confocal immunofluorescence of fixed and permeabilised EndoC-βH1 cells, mAb20 1:600 with anti-mouse secondary antibody, co-stained for VAMP2

Measured: binding

B1: anti-ZnT8 monoclonal antibody mAb20 (antibody, mouse IgG1, kappa, V domains shown)
VH: QIQLVQSGPELKKPGETVKISCKASGYIFTNYPMHWVKQAPGKGLKWMGWINTYSGVPTHADDFKGRFAFSLETSANSAFLQINNLKNEDTATYFCTRSRITPTGGYAMDYWGQGTSVTVSS
VL: DVVMTQTPLSLPVSLGDQASISCRSSQSLVHSNGNTYLHWYLQKPGQSPNLLISKVSNRFSGVPERFSGSGSGTDFTLKISRVEAEDLGVYFCSQNTHVPWTFGGGTKLEIKR
notes: Mouse monoclonal antibody; Used free (1:600 of a 1 mg/ml stock), biotinylated, or crosslinked to Dynabeads through NHS-PEG5K-NHS; also called mouse mAb20; biotinylated mAb20
binds: all assays above
